Source: patent US12121521B2, “Uses of salt-inducible kinase (SIK) inhibitors for treating osteoporosis” (The General Hospital Corporation, priority 2016, dated 2024)
At least one structure is not confirmed: it was looked up by name or label, or the drawing left a doubt.

Tested on: Ocy454 cells
Test: Gene expression in Ocy454 cells by RT-qPCR
Type: cell-based, mouse
Conditions: SIK2 deficient cells; forskolin 500 ng/mL, 4 hours; FIG. 4H
Method: In FIG. 21, Ocy454 cells (osteocyte cell line, also known at 6-9 cells) were cultured at 37° C. for 2 weeks to permit osteocyte differentiation. The cells were then treated with the indicated compound (0.5 μM) for 3.5 hours, and gene expression was analyzed by RT-qPCR. SOST expression was reduced by the indicated compounds. RANKL expression was increased by the indicated compounds. […] Therefore, these changes in gene expression may be due to on-target effects of the indicated compound.
For all experiments, a single cell subclone of Ocy454 cells (17, 18) was used. Cells were passages in alpha-MEM supplemented with 10% heat-inactivated fetal bovine serum and 1% antibiotics (penicillin/streptomycin, Fungizone) at 33° C. with 5% CO2. Cells were plated at 50,000 cells/ml and allowed to reach confluency at 33° C. (typically in 2-3 days). At this point, cells were transferred to 37° C. for subsequent analysis. For immunoblotting, cells were always analyzed after culture at 37° C. for 7 days. For gene expression analysis, cells were analyzed after culture at 37° C. for 14 days. Mycoplasma contamination was ruled out by PCR. Cells were routinely assayed for SOST expression at 37° C. and examined for osteocytic morphology.
Total RNA was extracted from cultured cells using RNeasy (Qiagen, Venlo, Netherlands) following the manufacturer's instructions. […]

C=C[C@@]1(C)CC(=O)[C@]2(O)[C@@]3(C)[C@@H](O)CCC(C)(C)[C@@H]3[C@H](O)[C@H](OC(C)=O)[C@@]2(C)O1 [forskolin, Forskolin, reference compound]
SOST or RANKL expression: failed to regulate SOST or RANKL expression in the absence of SIK2
